Our source for the binding values is article doi:10.1101/2022.12.14.520376.

By UniProt entry, the sequences of proteins in these tests, tags left out. Residues count along the entry.
UniProt P10721, residues 26-976: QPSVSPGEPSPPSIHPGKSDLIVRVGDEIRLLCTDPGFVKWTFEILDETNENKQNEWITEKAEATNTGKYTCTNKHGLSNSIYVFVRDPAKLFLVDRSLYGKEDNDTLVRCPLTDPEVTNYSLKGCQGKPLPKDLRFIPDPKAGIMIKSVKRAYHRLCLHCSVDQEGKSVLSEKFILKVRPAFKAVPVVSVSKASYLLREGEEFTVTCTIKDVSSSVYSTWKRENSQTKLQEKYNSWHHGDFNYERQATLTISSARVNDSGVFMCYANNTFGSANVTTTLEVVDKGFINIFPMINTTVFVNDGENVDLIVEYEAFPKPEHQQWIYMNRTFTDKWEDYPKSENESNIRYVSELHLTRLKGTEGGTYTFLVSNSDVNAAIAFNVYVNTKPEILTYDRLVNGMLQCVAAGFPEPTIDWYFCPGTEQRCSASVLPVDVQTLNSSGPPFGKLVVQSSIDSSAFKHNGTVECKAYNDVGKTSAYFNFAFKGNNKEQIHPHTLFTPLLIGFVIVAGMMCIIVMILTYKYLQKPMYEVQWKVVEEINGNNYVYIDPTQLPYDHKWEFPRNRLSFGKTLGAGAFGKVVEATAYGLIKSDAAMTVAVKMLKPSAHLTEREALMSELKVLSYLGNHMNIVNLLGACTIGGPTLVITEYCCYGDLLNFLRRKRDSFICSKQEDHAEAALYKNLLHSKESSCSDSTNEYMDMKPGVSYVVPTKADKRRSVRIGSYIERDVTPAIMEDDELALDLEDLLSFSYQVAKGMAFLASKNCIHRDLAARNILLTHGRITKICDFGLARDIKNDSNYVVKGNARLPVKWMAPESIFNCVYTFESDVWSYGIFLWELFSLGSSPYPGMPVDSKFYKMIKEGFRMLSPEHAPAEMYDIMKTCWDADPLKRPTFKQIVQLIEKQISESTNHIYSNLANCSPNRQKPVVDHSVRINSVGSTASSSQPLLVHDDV
UniProt P29279, residues 27-349: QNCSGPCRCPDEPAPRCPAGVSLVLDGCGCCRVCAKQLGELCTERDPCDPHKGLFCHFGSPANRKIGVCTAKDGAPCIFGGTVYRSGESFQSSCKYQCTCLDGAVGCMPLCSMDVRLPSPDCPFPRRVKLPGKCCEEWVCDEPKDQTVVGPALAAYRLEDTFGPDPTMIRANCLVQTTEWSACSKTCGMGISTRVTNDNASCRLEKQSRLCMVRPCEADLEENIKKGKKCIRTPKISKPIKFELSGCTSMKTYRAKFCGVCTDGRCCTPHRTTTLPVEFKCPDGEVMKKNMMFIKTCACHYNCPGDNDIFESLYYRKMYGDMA

The assay deals with Flag-KIT (human) (UniProt P10721). Put plainly: co-IP.

These are yes or no findings as the source states them, for the method shown. Binding seen in cells or lysates may run through a third protein. Some entries that bind do so weakly or less than the wild type.

For “HA-CTGF (connective tissue growth factor) (from UniProt P29279 27-349)”, the binding result is “binds”.
